This passage reports binding results from paper PMC10854458.

The chains behind the UniProt entries cited, without tags or fusion partners. Residues count along the entry.
UniProt P63038, residues 27-573: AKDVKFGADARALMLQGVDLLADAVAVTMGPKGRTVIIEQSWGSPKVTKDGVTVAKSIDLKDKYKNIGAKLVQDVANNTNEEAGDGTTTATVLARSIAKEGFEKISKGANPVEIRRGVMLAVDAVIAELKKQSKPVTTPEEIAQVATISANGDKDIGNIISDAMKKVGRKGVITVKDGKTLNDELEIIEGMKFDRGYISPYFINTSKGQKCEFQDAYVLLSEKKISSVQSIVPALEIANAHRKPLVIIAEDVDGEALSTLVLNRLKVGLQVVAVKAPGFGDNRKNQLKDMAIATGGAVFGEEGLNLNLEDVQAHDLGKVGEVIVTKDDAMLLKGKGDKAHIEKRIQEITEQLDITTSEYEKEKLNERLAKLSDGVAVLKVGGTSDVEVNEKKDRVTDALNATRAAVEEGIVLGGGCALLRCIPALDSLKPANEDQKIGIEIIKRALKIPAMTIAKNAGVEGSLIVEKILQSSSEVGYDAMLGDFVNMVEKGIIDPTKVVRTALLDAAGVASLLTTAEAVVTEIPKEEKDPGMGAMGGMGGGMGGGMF
UniProt Q64433: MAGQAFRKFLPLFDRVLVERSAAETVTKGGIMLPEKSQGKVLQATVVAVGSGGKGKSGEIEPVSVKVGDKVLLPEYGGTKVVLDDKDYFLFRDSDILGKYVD

No constants are given. Whether binding was seen depends on the method and setting. For part of these data: In cells and extracts the contact can be indirect. Some entries that bind do so weakly or less than the wild type.

Experiment [1] concerns the target mitochondrial HSP60 (endogenous, mitochondria of AML-12 cells) (mouse (endogenous in AML-12)) (UniProt P63038). Kind of experiment: co-IP; Dynabeads Protein A/G with SIRT4 or HSP60 antibody, 300 ug mitochondrial protein of AML-12 cells, overnight at 4 C; cells treated with Gln alone or in combination with LPS; blots for SIRT4, HSP60, HSP10.
Experiment [2] concerns the target HSP60 recombinant protein (UniProt P63038). Kind of experiment: ITC; Auto ITC200; 10 uM HSP60 in the cell, 100 uM SIRT4 titrated, 20 titrations of 2 uL, interval 120 s; proteins dissolved in deionized water; multi-point binding model; both purified.

For the molecule “HSP10 (endogenous, mitochondria of AML-12 cells) (from UniProt Q64433 1-102)”, the binding entry in experiment [1] is given as “binds”.

B1: SIRT4 recombinant protein (enzyme, UniProt Q8R216 26-333)
chain: SGLFVPPSPPLDPEKIKELQRFISLSKKLLVMTGAGISTESGIPDYRSEKVGLYARTDRRPIQHIDFVRSAPVRQRYWARNFVGWPQFSSHQPNPAHWALSNWERLGKLHWLVTQNVDALHSKAGSQRLTELHGCMHRVLCLNCGEQTARRVLQERFQALNPSWSAEAQGVAPDGDVFLTEEQVRSFQVPCCDRCGGPLKPDVVFFGDTVNPDKVDFVHRRVKEADSLLVVGSSLQVYSGYRFILTAREQKLPIAILNIGPTRSDDLACLKLDSRCGELLPLIDPRRQHSDVQRLEMNFPLSSAAQDP
As for B1, the binding result in experiment [2] is on record as “binds”.

B2: SIRT4 (endogenous, mitochondria of AML-12 cells) (enzyme, UniProt Q8R216 26-333)
chain: SGLFVPPSPPLDPEKIKELQRFISLSKKLLVMTGAGISTESGIPDYRSEKVGLYARTDRRPIQHIDFVRSAPVRQRYWARNFVGWPQFSSHQPNPAHWALSNWERLGKLHWLVTQNVDALHSKAGSQRLTELHGCMHRVLCLNCGEQTARRVLQERFQALNPSWSAEAQGVAPDGDVFLTEEQVRSFQVPCCDRCGGPLKPDVVFFGDTVNPDKVDFVHRRVKEADSLLVVGSSLQVYSGYRFILTAREQKLPIAILNIGPTRSDDLACLKLDSRCGELLPLIDPRRQHSDVQRLEMNFPLSSAAQDP
For the molecule B2, the binding entry in experiment [1] is reported as “binds”.
